Laboratory results reported in the supplement of paper PMC10849652.
The list shows a part of the results.

The chains behind the UniProt entries cited, without tags or fusion partners. Where a name states a change or a piece, a line headed by the entry shows the natural chain unless it says otherwise.
UniProt O43347: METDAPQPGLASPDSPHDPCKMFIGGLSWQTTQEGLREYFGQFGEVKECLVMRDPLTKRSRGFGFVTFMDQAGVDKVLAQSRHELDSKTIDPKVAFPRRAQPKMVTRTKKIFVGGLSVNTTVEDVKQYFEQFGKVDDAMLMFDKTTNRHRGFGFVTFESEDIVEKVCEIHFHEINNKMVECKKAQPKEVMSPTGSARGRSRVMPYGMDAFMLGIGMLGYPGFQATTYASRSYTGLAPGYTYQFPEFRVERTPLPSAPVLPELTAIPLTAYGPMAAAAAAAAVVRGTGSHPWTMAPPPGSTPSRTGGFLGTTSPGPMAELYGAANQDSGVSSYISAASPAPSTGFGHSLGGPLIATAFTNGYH
UniProt P12829: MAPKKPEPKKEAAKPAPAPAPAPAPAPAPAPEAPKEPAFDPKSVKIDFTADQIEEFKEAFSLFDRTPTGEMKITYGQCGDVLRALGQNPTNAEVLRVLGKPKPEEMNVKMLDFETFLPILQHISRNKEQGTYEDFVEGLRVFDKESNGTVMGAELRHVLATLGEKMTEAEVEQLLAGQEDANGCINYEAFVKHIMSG
UniProt Q7Z406, whole entry, looked up: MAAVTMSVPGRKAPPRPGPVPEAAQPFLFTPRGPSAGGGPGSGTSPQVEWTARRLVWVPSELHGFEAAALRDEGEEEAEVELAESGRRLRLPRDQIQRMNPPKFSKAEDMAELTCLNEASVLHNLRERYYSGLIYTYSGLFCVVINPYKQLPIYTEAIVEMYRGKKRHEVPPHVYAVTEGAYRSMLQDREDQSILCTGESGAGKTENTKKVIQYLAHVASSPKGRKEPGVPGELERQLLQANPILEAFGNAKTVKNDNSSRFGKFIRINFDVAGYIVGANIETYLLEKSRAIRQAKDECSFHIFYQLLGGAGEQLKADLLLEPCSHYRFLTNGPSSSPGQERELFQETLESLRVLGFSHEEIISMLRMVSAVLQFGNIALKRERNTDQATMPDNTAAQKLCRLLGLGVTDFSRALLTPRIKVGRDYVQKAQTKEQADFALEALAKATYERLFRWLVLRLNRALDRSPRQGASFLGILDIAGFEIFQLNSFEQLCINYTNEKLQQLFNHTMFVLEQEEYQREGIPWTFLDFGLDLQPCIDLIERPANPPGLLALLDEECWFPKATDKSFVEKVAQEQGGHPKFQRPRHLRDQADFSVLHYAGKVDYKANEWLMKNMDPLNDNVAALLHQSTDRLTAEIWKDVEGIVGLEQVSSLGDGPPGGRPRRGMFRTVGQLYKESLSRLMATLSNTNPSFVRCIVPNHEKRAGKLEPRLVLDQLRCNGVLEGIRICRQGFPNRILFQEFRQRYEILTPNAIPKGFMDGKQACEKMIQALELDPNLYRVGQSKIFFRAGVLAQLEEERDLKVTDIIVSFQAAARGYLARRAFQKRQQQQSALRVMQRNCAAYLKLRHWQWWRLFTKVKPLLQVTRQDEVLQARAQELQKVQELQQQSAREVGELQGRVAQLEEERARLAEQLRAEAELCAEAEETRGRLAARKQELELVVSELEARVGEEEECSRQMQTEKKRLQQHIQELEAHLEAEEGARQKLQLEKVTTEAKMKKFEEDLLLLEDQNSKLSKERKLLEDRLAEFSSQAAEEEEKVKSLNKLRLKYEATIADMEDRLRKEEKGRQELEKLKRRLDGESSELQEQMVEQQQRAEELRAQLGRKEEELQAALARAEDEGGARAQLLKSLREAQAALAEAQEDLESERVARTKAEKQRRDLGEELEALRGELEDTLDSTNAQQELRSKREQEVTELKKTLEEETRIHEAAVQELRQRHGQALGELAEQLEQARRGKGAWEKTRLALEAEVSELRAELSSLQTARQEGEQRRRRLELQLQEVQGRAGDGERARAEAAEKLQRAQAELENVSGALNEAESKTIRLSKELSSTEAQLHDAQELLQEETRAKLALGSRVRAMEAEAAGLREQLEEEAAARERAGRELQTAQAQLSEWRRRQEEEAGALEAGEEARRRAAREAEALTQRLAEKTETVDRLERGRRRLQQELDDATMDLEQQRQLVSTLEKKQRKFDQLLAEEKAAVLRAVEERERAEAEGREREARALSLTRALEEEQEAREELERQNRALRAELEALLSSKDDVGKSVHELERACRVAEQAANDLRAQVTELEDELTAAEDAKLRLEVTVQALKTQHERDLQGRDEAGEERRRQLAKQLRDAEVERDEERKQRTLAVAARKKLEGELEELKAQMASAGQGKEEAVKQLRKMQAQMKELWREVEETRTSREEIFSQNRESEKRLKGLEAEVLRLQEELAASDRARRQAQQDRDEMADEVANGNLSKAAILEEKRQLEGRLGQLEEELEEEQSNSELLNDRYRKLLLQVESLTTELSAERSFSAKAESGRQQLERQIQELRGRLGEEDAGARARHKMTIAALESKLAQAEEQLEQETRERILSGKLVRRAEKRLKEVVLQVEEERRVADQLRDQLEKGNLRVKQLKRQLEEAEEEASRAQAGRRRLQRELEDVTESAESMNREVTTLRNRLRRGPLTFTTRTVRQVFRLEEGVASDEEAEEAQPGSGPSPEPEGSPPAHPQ
UniProt P43246, whole entry, looked up: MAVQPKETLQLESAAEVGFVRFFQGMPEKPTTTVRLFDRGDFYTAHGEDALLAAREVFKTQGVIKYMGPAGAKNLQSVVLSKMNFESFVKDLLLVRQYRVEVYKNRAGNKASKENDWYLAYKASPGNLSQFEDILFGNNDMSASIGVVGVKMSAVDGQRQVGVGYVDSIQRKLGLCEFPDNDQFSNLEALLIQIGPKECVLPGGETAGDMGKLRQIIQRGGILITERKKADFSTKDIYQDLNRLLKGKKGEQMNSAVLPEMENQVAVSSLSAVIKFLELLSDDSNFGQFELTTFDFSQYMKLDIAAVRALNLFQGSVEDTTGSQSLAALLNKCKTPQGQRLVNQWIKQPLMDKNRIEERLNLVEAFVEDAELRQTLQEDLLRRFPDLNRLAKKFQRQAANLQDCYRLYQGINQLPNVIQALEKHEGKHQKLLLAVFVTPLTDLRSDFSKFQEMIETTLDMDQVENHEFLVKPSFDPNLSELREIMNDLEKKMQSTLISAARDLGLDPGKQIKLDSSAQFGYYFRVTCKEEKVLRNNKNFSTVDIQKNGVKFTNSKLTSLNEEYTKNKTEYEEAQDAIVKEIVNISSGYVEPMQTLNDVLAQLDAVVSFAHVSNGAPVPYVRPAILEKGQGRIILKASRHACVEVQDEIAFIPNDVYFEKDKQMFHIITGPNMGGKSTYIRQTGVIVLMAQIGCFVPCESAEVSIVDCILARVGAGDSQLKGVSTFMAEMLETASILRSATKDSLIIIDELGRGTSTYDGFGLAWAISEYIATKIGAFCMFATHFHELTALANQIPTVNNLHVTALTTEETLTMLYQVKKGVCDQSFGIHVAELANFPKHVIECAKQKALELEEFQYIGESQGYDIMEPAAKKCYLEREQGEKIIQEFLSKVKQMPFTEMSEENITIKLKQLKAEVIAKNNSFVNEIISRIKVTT
UniProt P84157: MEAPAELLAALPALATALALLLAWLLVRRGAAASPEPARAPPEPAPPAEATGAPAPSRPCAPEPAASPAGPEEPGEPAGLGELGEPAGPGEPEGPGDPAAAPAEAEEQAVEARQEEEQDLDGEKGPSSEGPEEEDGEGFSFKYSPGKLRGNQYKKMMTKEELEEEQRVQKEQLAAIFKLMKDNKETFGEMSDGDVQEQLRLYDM
UniProt P13995: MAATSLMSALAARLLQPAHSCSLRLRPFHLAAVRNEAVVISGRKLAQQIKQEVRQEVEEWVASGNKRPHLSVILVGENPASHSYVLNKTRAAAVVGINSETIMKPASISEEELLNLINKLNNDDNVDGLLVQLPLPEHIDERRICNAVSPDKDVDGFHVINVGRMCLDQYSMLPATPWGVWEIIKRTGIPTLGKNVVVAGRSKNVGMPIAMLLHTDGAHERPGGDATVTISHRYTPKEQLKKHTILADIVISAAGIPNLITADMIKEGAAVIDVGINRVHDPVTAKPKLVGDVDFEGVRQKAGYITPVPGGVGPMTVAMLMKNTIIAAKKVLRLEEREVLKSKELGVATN
UniProt Q96DR8: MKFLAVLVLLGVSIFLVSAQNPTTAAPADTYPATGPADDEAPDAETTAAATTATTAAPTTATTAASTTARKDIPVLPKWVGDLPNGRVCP
UniProt P49914: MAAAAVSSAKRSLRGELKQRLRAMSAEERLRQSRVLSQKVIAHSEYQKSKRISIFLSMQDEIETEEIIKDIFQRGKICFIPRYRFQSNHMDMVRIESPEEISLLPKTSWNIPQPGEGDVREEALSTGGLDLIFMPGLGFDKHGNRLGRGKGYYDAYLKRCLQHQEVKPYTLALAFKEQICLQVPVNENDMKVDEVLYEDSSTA
UniProt P00403, whole entry, looked up: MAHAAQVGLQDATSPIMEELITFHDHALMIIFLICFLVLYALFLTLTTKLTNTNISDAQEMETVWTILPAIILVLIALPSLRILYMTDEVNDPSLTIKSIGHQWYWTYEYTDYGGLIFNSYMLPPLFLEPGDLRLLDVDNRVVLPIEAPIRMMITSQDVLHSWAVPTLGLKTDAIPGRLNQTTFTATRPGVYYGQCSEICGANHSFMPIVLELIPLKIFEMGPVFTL

Experiments:
Assay in all cases: log2 fold change, soluble protein after heating vs DMSO (PISA); higher = thermal stabilisation; K562 cells, 10 uM, 30 min; active = over 0.2 and 3.5 SD of the protein, either way, in both replicates (recomputed)
[1] = compound: NC(=O)Nc1cc(-c2cccc(F)c2)sc1C(=O)N[C@H]1CCCNC1
Summary of the method: (§1)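 Soluble protein was defined as the supernatant after 21,000xg for 90 min. It came from K562 cells at 2×10^6 cells/mL given 10 μM compound for 30 min, heated in aliquots for 3 min across 48°C-58°C, pooled, and extracted in PBS with 0.5% NP-40 at 4°C, and was quantified by TMTpro 16plex LC-MS/MS with equalised channel sums. Thermal stability against control samples, from duplicates, is reported as log2 fold change.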

[2] = compound: NC(=O)c1cnc(N[C@@H]2CCCC[C@@H]2N)nc1Nc1cccc(-n2nccn2)c1
Summary of the method: as §1

[3] = compound: NC1(c2ccc(-c3nc4ccn5c(=O)[nH]nc5c4cc3-c3ccccc3)cc2)CCC1
Summary of the method: as §1

[4] = compound: NCC(=O)Nc1ccc(-n2nc(C(F)(F)F)cc2-c2ccc3c(ccc4ccccc43)c2)cc1
Summary of the method: as §1

[5] = compound: Nc1ccccc1NC(=O)c1ccc(CNC(=O)OCc2cccnc2)cc1 [entinostat]
Summary of the method: as §1

[6] = compound: O=C(CCCCCCC(=O)Nc1ccccc1)NO [vorinostat]
Summary of the method: as §1

[7] = compound: O=C(CCCCCCNC(=O)c1cnc(N(c2ccccc2)c2ccccc2Cl)nc1)NO [citarinostat]
Summary of the method: as §1

[8] = compound: O=C(O)c1ccc2c(c1)nc(Nc1cccc(Cl)c1)c1ccncc12 [silmitasertib]
Summary of the method: as §1

[9] = compound: O=C1NC(=O)C(c2cnc3ccccn23)=C1c1cn2c3c(cc(F)cc13)CN(C(=O)N1CCCCC1)CC2
Summary of the method: as §1

[10] = compound: c1cc(OCCN2CCCCC2)cc(-c2n[nH]c3ccc(-c4nnc[nH]4)cc23)c1
Summary of the method: as §1

For MRPS12 (UniProt O15235), the log2 fold change [1] was inactive: 0.207, the log2 fold change [2] was inactive: -0.053 and the log2 fold change [3] was inactive: -0.005. The log2 fold change [4] was inactive: 0.221, the log2 fold change [5] was inactive: -0.017 and the log2 fold change [6] was inactive: 0.038. For the same target, the log2 fold change [7] was inactive: 0.01, the log2 fold change [8] was inactive: -0.007 and the log2 fold change [9] was inactive: 0.101. For the same target, the log2 fold change [10] was inactive: -0.056.
For MSI1 (UniProt O43347), the log2 fold change [1] was inactive: -0.004, the log2 fold change [2] was inactive: 0.028 and the log2 fold change [3] was inactive: 0.013. For the same target, the log2 fold change [4] was inactive: -0.005, the log2 fold change [5] was inactive: 0.021 and the log2 fold change [6] was inactive: 0.103. For the same target, the log2 fold change [7] was inactive: -0.036, the log2 fold change [8] was inactive: 0.058 and the log2 fold change [9] was inactive: 0.186. The log2 fold change [10] was inactive: -0.132.
With MRPS17 (UniProt Q9Y2R5) the log2 fold change [1] was inactive: -0.035, the log2 fold change [2] was inactive: 0.091 and the log2 fold change [3] was inactive: -0.138. The log2 fold change [4] was inactive: -0.018, the log2 fold change [5] was inactive: -0.027 and the log2 fold change [6] was inactive: 0.191. The log2 fold change [7] was inactive: 0.05, the log2 fold change [8] was inactive: -0.051 and the log2 fold change [9] was inactive: -0.047. The log2 fold change [10] was inactive: 0.02.
MYL4 (UniProt P12829) was tested, and the log2 fold change [1] was inactive: 0.041, the log2 fold change [2] was inactive: 0.033 and the log2 fold change [3] was inactive: 0.033. The log2 fold change [4] was inactive: 0.008, the log2 fold change [5] was inactive: 0.04 and the log2 fold change [6] was inactive: -0.028. For the same target, the log2 fold change [7] was inactive: -0.001, the log2 fold change [8] was inactive: -0.006 and the log2 fold change [9] was inactive: -0.034. The log2 fold change [10] was inactive: -0.045.
In the case of MYH14 isoform 2 (UniProt Q7Z406), the log2 fold change [1] is reported as inactive: -0.052, the log2 fold change [2] is reported as inactive: 0.057 and the log2 fold change [3] is reported as inactive: -0.071. The log2 fold change [4] was inactive: -0.012, the log2 fold change [5] was inactive: 0.009 and the log2 fold change [6] was inactive: 0.022. For the same target, the log2 fold change [7] was inactive: 0.01, the log2 fold change [8] was inactive: 0.046 and the log2 fold change [9] was inactive: -0.072. The log2 fold change [10] was inactive: 0.004.
For MRPS28 (UniProt Q9Y2Q9), the log2 fold change [1] was inactive: 0.071, the log2 fold change [2] was inactive: 0.04 and the log2 fold change [3] was inactive: -0.011. The log2 fold change [4] was inactive: 0.132, the log2 fold change [5] was inactive: 0.008 and the log2 fold change [6] was inactive: 0.161. The log2 fold change [7] was inactive: 0.005, the log2 fold change [8] was inactive: -0.074 and the log2 fold change [9] was inactive: -0.083. The log2 fold change [10] was inactive: 0.047.
MSH2 (UniProt P43246) was tested, and the log2 fold change [1] was inactive: -0.069, the log2 fold change [2] was inactive: -0.06 and the log2 fold change [3] was inactive: -0.109. The log2 fold change [4] was inactive: -0.138, the log2 fold change [5] was inactive: 0.074 and the log2 fold change [6] was inactive: 0.032. The log2 fold change [7] was inactive: 0.089, the log2 fold change [8] was inactive: 0.037 and the log2 fold change [9] was inactive: -0.091. For the same target, the log2 fold change [10] was inactive: -0.003.
MXRA7 (UniProt P84157) was tested, and the log2 fold change [1] was inactive: -0.097, the log2 fold change [2] was inactive: 0.037 and the log2 fold change [3] was inactive: 0.037. For the same target, the log2 fold change [4] was active: -0.302, the log2 fold change [5] was inactive: 0.008 and the log2 fold change [6] was inactive: 0.003. For the same target, the log2 fold change [7] was inactive: -0.006, the log2 fold change [8] was inactive: 0.028 and the log2 fold change [9] was inactive: -0.013. The log2 fold change [10] was inactive: 0.061.
With MRPS34 (UniProt P82930) the log2 fold change [1] was inactive: 0.012, the log2 fold change [2] was inactive: 0.021 and the log2 fold change [3] was inactive: -0.091. For the same target, the log2 fold change [4] was inactive: 0.04, the log2 fold change [5] was inactive: 0 and the log2 fold change [6] was inactive: 0.156. The log2 fold change [7] was inactive: -0.053, the log2 fold change [8] was inactive: -0.092 and the log2 fold change [9] was inactive: -0.072. For the same target, the log2 fold change [10] was inactive: -0.06.
For MTHFD2 (UniProt P13995), the log2 fold change [1] was inactive: -0.076, the log2 fold change [2] was inactive: 0.002 and the log2 fold change [3] was inactive: -0.119. For the same target, the log2 fold change [4] was inactive: -0.036, the log2 fold change [5] was inactive: 0.008 and the log2 fold change [6] was inactive: 0.02. The log2 fold change [7] was inactive: 0.02, the log2 fold change [8] was inactive: -0.023 and the log2 fold change [9] was inactive: -0.048. The log2 fold change [10] was inactive: 0.001.
In the case of MRPS25 (UniProt P82663), the log2 fold change [1] is reported as inactive: -0.031, the log2 fold change [2] is reported as inactive: 0.046 and the log2 fold change [3] is reported as inactive: 0.04. The log2 fold change [4] was inactive: 0.04, the log2 fold change [5] was inactive: 0.021 and the log2 fold change [6] was inactive: -0.036. The log2 fold change [7] was inactive: 0.073, the log2 fold change [8] was inactive: -0.053 and the log2 fold change [9] was inactive: 0.062. The log2 fold change [10] was inactive: -0.074.
In the case of MUCL1 (UniProt Q96DR8), the log2 fold change [1] is reported as inactive: 0.305, the log2 fold change [2] is reported as inactive: 0.388 and the log2 fold change [3] is reported as inactive: -0.107. The log2 fold change [4] was inactive: 0.245, the log2 fold change [5] was inactive: 0.175 and the log2 fold change [6] was inactive: 0.661. For the same target, the log2 fold change [7] was inactive: -0.205, the log2 fold change [8] was inactive: -0.526 and the log2 fold change [9] was inactive: 0.074. For the same target, the log2 fold change [10] was inactive: 0.29.
MTHFS (UniProt P49914) was tested, and the log2 fold change [1] was inactive: -0.021, the log2 fold change [2] was inactive: -0.028 and the log2 fold change [3] was inactive: -0.086. For the same target, the log2 fold change [4] was inactive: -0.135, the log2 fold change [5] was inactive: 0.007 and the log2 fold change [6] was inactive: -0.1. The log2 fold change [7] was inactive: 0.025, the log2 fold change [8] was inactive: 0.021 and the log2 fold change [9] was inactive: 0.014. For the same target, the log2 fold change [10] was inactive: -0.057.
In the case of MRPS23 (UniProt Q9Y3D9), the log2 fold change [1] is reported as inactive: 0.03, the log2 fold change [2] is reported as inactive: 0.037 and the log2 fold change [3] is reported as inactive: -0.008. For the same target, the log2 fold change [4] was inactive: 0.057, the log2 fold change [5] was inactive: 0.013 and the log2 fold change [6] was inactive: 0.045. For the same target, the log2 fold change [7] was inactive: 0.016, the log2 fold change [8] was inactive: -0.072 and the log2 fold change [9] was inactive: -0.028. For the same target, the log2 fold change [10] was inactive: -0.081.
For MT-CO2 (UniProt P00403), the log2 fold change [1] was inactive: -0.002, the log2 fold change [2] was inactive: 0.121 and the log2 fold change [3] was inactive: -0.044. The log2 fold change [4] was inactive: 0.056, the log2 fold change [5] was inactive: -0.028 and the log2 fold change [6] was inactive: 0.026. The log2 fold change [7] was inactive: 0.042, the log2 fold change [8] was inactive: -0.035 and the log2 fold change [9] was inactive: 0.005. For the same target, the log2 fold change [10] was inactive: -0.048.
